Results are given in words; binding and its absence hold for the method and conditions named. In cells and extracts the contact can be indirect. Some results given as binding are weak or reduced against the parent protein; the word gives no strength.
Columns and labels:
[1] = target: FLAG-Gal3 (UniProt P17931); test: co-IP; HEK293T expressing FLAG-Gal3; untreated or 1 mM LLOMe 30 min; NP-40 lysate, anti-FLAG antibody, Dynabeads; immunoblot (Fig. 6C)
[2] = target: FLAG-eIF2α (UniProt P05198); test: co-IP; HEK293T expressing FLAG or FLAG-eIF2α, untreated or 1 mM LLOMe 30 min; NP-40 lysate, anti-FLAG antibody, Dynabeads; immunoblot (Fig. 3D)

By UniProt entry, the sequences of proteins in these tests, tags left out.
UniProt P17931: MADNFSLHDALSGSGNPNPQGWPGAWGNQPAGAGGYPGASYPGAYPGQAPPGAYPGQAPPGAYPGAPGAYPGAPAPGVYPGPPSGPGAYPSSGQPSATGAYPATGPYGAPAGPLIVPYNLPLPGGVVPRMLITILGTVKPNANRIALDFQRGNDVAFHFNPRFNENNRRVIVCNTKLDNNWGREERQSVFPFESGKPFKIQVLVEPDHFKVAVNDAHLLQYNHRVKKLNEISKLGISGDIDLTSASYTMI
UniProt P05198: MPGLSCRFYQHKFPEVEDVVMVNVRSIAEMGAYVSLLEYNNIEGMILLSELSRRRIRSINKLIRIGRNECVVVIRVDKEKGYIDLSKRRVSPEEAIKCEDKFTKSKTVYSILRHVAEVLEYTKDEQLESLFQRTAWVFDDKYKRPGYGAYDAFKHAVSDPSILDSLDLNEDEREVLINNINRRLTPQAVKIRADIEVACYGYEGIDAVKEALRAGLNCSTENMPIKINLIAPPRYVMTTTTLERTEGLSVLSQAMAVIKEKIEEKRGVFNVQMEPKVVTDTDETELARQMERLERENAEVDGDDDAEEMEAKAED
UniProt Q8WUM4: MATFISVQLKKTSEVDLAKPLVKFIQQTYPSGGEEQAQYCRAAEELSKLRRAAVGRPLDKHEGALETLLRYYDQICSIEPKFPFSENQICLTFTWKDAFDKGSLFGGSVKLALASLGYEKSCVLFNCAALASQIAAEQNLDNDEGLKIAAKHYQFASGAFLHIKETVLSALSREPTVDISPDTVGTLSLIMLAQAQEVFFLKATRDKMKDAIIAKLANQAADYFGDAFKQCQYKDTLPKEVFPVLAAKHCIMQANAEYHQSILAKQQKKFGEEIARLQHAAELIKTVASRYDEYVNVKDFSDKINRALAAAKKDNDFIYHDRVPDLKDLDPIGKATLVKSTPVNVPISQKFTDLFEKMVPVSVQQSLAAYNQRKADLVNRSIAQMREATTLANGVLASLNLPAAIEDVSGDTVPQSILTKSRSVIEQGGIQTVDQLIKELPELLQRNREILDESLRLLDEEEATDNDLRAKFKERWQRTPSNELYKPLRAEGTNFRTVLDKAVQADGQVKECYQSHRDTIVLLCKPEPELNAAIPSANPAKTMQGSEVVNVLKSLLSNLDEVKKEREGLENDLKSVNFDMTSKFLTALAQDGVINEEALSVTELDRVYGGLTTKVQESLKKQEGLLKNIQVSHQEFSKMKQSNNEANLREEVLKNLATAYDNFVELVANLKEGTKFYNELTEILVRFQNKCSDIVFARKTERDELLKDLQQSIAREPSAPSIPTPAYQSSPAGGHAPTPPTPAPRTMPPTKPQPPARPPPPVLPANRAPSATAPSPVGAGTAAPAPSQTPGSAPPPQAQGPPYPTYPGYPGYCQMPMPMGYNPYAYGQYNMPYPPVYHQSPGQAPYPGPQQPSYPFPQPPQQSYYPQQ
UniProt P19525: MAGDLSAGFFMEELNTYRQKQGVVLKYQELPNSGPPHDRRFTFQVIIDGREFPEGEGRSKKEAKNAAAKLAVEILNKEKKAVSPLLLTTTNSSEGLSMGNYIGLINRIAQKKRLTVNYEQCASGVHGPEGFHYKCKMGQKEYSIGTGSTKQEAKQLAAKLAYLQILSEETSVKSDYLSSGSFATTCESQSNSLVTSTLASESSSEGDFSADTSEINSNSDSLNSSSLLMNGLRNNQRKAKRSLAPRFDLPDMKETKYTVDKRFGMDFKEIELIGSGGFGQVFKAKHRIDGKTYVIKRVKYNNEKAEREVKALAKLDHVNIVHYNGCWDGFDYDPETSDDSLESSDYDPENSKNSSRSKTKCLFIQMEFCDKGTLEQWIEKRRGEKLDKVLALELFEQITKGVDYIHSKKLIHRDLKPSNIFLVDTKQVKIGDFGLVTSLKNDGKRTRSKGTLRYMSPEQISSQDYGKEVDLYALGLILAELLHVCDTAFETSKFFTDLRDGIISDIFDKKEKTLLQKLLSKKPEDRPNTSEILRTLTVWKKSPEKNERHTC

binding [1] | binding [2] | Substance
binds | – | ALIX (ALG-2-Interacting Protein X), endogenous (from UniProt Q8WUM4 1-868)
binds | binds | PKR (Protein Kinase R), endogenous (from UniProt P19525 1-551)

From publication PMC11649789
